The text below walks through data of PMC7819943, “Rice protein-binding microarrays: a tool to detect cis-acting elements near promoter regions in rice”.

This is one part of the list.

The assay has as its target T1, OsSMF1 (Oryza sativa, UniProt Q6ZLB0 1-436).
T1 sequence: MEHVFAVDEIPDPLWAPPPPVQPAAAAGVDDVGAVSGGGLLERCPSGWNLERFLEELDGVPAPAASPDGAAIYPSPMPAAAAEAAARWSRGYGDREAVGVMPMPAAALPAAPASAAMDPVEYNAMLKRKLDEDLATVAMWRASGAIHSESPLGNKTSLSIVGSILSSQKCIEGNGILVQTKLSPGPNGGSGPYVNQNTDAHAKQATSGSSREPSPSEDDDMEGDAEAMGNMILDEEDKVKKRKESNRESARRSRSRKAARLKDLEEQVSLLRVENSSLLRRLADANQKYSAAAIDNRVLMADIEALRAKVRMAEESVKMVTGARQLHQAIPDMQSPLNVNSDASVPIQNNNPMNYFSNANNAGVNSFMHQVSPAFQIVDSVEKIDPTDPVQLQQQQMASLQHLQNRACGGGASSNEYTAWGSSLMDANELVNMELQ
The experiment in a line: protein-binding microarray (RPBM); PBS, 2% BSA, 51.3 ng/ul salmon testes DNA, 50 uM zinc acetate, 200 nM TF, 25 C, 1 h; high values mean tight binding. As to conditions: protein: recombinant; tags: N-terminal polyhistidine and DsRed monomer fusion (pET32a); chain copies: 2; label: CyDye5-dUTP incorporated in the synthesized complementary strand; 3' TTTTT single-stranded linker to array surface; dsDNA, one strand shown. In outline: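 Using Ni–NTA, transcription factors fused N-terminally to polyhistidine and DsRed were purified after expression in E. coli BL21-CodonPlus. These were incubated at 200 nM with a blocked, double-stranded custom Agilent array for 1 h at 25 °C in a buffer containing 50 µM zinc acetate, and the array was washed. The binding signal is per-feature fluorescence intensity (arbitrary units) on an Axon 4000B scanner.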
Regarding “CCTGGTCTTTGATTGGTCCACGTGGCGCAGCGAGAATTCACGGAGTCACCTAGTGCAG”, the binding signal is 10800 fluorescence intensity (a.u.).

With “GCCTGCCGCCCTCCCATCGCCGCTCCGCCCGCCGACTGTCCGGAGTCACCTAGTGCAG”, the binding signal is 8860 fluorescence intensity (a.u.).

As for “CAATACGTCATAATGTTTCATATTAATCTATGTTGTCAAGCGGAGTCACCTAGTGCAG”, the binding signal is 4010 fluorescence intensity (a.u.).

“TTTCTCAACTGCATAATCCTGTCATTCATGTTCTCGTGCACGGAGTCACCTAGTGCAG”: the binding signal is 4410 fluorescence intensity (a.u.).

Consider “CCCACGGCGGGCTCTGACGTGGATGTAGTCGGTCTTCTGGCGGAGTCACCTAGTGCAG”, for which the binding signal is 9860 fluorescence intensity (a.u.).

“ACTTAATAAAATCAAACGTCACAGTTCCGTACTTTTCAGTCGGAGTCACCTAGTGCAG”: the binding signal was 35900 fluorescence intensity (a.u.).

For the sequence “GATAATTTAAATCGCATCAATTAAGATACCATGTACGCATCGGAGTCACCTAGTGCAG”, the binding signal is 32700 fluorescence intensity (a.u.).

On to “GAGGGGAGCAGGCTGTACATGCTGGATTACCACGACATCTCGGAGTCACCTAGTGCAG”, for which the binding signal was 3510 fluorescence intensity (a.u.).

Turning to “TATGTAATTAGTTTTGTAAGTAGTCTATATTTAATACTCTCGGAGTCACCTAGTGCAG”, the binding signal is 22000 fluorescence intensity (a.u.).

“CAGTGACTCCTCTCCTACGTAGGCGCCACGTCAGCAAAACCGGAGTCACCTAGTGCAG”: the binding signal is 20900 fluorescence intensity (a.u.).

For “GCTGACATCAGCATGATATCAGCGCCCGATTTCCCCGGCCCGGAGTCACCTAGTGCAG”, the binding signal was 11400 fluorescence intensity (a.u.).

“TTAACAAACACAAGAAAGACAAATACGAGTCCTTCGATAACGGAGTCACCTAGTGCAG”: the binding signal is 6520 fluorescence intensity (a.u.).

For “CGTCCACACACTCATGAATCATCGCTCACTCAAACAGCCTCGGAGTCACCTAGTGCAG”, the binding signal is 4180 fluorescence intensity (a.u.).

As for “TCTTCCTCCTCTTCTGCGTCGTCGACTTCGTCTCCGGCGGCGGAGTCACCTAGTGCAG”, the binding signal is 3620 fluorescence intensity (a.u.).

Take “TGGGGAAGGCTCCGGCGAGCCTCCGCGCGCGCCGCGCTGGCGGAGTCACCTAGTGCAG”: the binding signal is 3210 fluorescence intensity (a.u.).

On to “TTCTAGAAAACATCGTGTCATGCTAGTTTTGAGCAGAAGTCGGAGTCACCTAGTGCAG”, for which the binding signal was 3230 fluorescence intensity (a.u.).

Regarding “TCCTCCTTTATACTAGGAAAGAACAGCCGACGTGGCGATCCGGAGTCACCTAGTGCAG”, the binding signal is 17000 fluorescence intensity (a.u.).

With “AGCCGCACTCAAAACCCACGTACACCCCATGCCTTGCCTCCGGAGTCACCTAGTGCAG”, the binding signal was 4590 fluorescence intensity (a.u.).

Take “GAGTAGCTTTGCTGATGATGCCATATACTAATATCTCCTTCGGAGTCACCTAGTGCAG”: the binding signal was 3300 fluorescence intensity (a.u.).

As to “TAGGTATCATCTGACACCTCACAATTATCACCAAATTAGGCGGAGTCACCTAGTGCAG”, the binding signal is 3500 fluorescence intensity (a.u.).

In the case of “GACATTCAACTAGTACTGACAAAGAGGGTACACCACGTAGCGGAGTCACCTAGTGCAG”, the binding signal was 4010 fluorescence intensity (a.u.).

Turning to “ATACTACTAAACGAATGAAAATGGGTCATTTTGCCGCGCTCGGAGTCACCTAGTGCAG”, the binding signal is 3860 fluorescence intensity (a.u.).

On to “CATTAGGTATTTCGACAGCATAGCAACTATACACAATATCCGGAGTCACCTAGTGCAG”, for which the binding signal is 3250 fluorescence intensity (a.u.).

In the case of “AGCTAATTGCTACACTTTGACCTGTCATCAATCTTTGGATCGGAGTCACCTAGTGCAG”, the binding signal was 5490 fluorescence intensity (a.u.).

Turning to “CACATCGTTGCCAATGTTGCCACGTACCAAGGTCATATGGCGGAGTCACCTAGTGCAG”, the binding signal is 9400 fluorescence intensity (a.u.).

Regarding “TTAACCTTTTCTTATTAAGGATCAGAAAGATATGGATAATCGGAGTCACCTAGTGCAG”, the binding signal is 3500 fluorescence intensity (a.u.).

Regarding “CCGTCGACCACGTTGATGCCGACGGTGGCTGACACATGACCGGAGTCACCTAGTGCAG”, the binding signal was 4960 fluorescence intensity (a.u.).

As to “GTGGGGCCCACAAGCAGAGACACGCACGCCAAGCATTAGTCGGAGTCACCTAGTGCAG”, the binding signal was 4000 fluorescence intensity (a.u.).

Turning to “CTCTCGTCTTAACTTAATTCCTGCCAGAATGTGACGTGCACGGAGTCACCTAGTGCAG”, the binding signal was 5240 fluorescence intensity (a.u.).

Turning to “GTCGAGCGGGCGAACATGATCTCGCGGGAGGGTGGGGTTGCGGAGTCACCTAGTGCAG”, the binding signal is 4320 fluorescence intensity (a.u.).

Take “AACTACTCCCTCTGTTCCATAATATAAGGGATTTTAACTTCGGAGTCACCTAGTGCAG”: the binding signal is 3670 fluorescence intensity (a.u.).

Take “TTAGGACCATGTCACTGCCGTCACGTTTTCCATCCATATCCGGAGTCACCTAGTGCAG”: the binding signal was 5680 fluorescence intensity (a.u.).

For “ATCCACCGCTGAGTCCCAGACGAGCGAGGGCCAGATCATCCGGAGTCACCTAGTGCAG”, the binding signal was 3410 fluorescence intensity (a.u.).

On to “ACCACCACCGCTTCCTCCTCCACGCCATTACTGCTCCTCACGGAGTCACCTAGTGCAG”, for which the binding signal is 5320 fluorescence intensity (a.u.).

With “GCGAGACGAGCAGGACGGCGGCGGCGGCCACAAGTTCCGGCGGAGTCACCTAGTGCAG”, the binding signal is 3270 fluorescence intensity (a.u.).

As to “GGATGCTAGTGTTATCTAGTCAGGCTCTACAAAATTTCTACGGAGTCACCTAGTGCAG”, the binding signal was 3660 fluorescence intensity (a.u.).

As to “GCCTTTGCTCAATCCTGCAGAGAAGGGCAGAAGACGTCACCGGAGTCACCTAGTGCAG”, the binding signal is 3390 fluorescence intensity (a.u.).

As to “TCAAGAAGGAGTAGTCCTATCATATAATTGCTGATTCAGTCGGAGTCACCTAGTGCAG”, the binding signal was 4190 fluorescence intensity (a.u.).

As for “GCCCGTTGCTGTTGAGAGCTGATCTGTACCCCTCCTCAAGCGGAGTCACCTAGTGCAG”, the binding signal was 3780 fluorescence intensity (a.u.).

For “TACCATGTGACCGTGTGATGATCGATCGATGATCACCATTCGGAGTCACCTAGTGCAG”, the binding signal is 3370 fluorescence intensity (a.u.).

In the case of “AGGCGGCATTTTATCAGCGATGTACCACTACTATTATTTGCGGAGTCACCTAGTGCAG”, the binding signal was 17000 fluorescence intensity (a.u.).

On to “AAACATAACAATATTTTCAACATAAAACAAATAATGTTATCGGAGTCACCTAGTGCAG”, for which the binding signal was 3530 fluorescence intensity (a.u.).
